This is an account of results in patent US20100055116A1, “Methods and Compositions for Targeting c-Rel” (priority 2006, published 2010).

The exact form of at least one protein or probe is not confirmed. Where cells or extracts were used, other partners may take part.

The series has as its system NF-kB/Rel (nuclear extract of B cells) (Mus musculus). Kind of series: EMSA. The note with it: anti-IgM or anti-CD40 stimulated B cells; transient in control, sustained in Pten-mutant; poly(dI-dC), 200 mM KCl, on ice; protein in an extract; label: 32P; folded or branched DNA.

Take “GAGAGGGGACTTTCCGATTAGCTTTCGGAAAGTCCCCTC [IgkB loop oligo]”: the binding result is on record as “binds”.
